Drug screen on melanoma cell lines: cell count

Data from the primary screen of doi:10.1371/journal.pone.0140310, rounded.

Drugs:
fludarabine, 0.2 µM: Nc1nc(F)nc2c1ncn2[C@@H]1O[C@H](CO)[C@@H](O)[C@@H]1O
BI-78D3, 0.2 µM: O=c1[nH]nc(Sc2ncc([N+](=O)[O-])s2)n1-c1ccc2c(c1)OCCO2
tozasertib, 0.006 µM: Cc1cc(Nc2cc(N3CCN(C)CC3)nc(Sc3ccc(NC(=O)C4CC4)cc3)n2)n[nH]1
ENMD-2076, 0.04 µM: Cc1cc(Nc2cc(N3CCN(C)CC3)nc(/C=C/c3ccccc3)n2)n[nH]1
MK-2206, 0.4 µM: NC1(c2ccc(-c3nc4ccn5c(=O)[nH]nc5c4cc3-c3ccccc3)cc2)CCC1
VX-702, 0.4 µM: NC(=O)c1ccc(N(C(N)=O)c2c(F)cccc2F)nc1-c1ccc(F)cc1F
stibogluconate, 2 µM: O=C(O)[C@@H]1[O][Sb](=[O])([O][Sb]2(=[O])[O][C@H]([C@H](O)CO)[C@H](O)[C@H](C(=O)O)[O]2)[O][C@H]([C@H](O)CO)[C@@H]1O (stereo partly specified)
lenalidomide, 1 µM: Nc1cccc2c1CN(C1CCC(=O)NC1=O)C2=O (stereo unspecified)
FK866, 0.01 µM: O=C(/C=C/c1cccnc1)NCCCCC1CCN(C(=O)c2ccccc2)CC1
erlotinib, 0.8 µM: C#Cc1cccc(Nc2ncnc3cc(OCCOC)c(OCCOC)cc23)c1
cisplatin, 1.6 µM: N.N.[Cl][Pt][Cl]
lapatinib, 0.8 µM: CS(=O)(=O)CCNCc1ccc(-c2ccc3ncnc(Nc4ccc(OCc5cccc(F)c5)c(Cl)c4)c3c2)o1
PLX4720, 0.08 µM: CCCS(=O)(=O)Nc1ccc(F)c(C(=O)c2c[nH]c3ncc(Cl)cc23)c1F

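The test systems are human melanoma cell lines, treated with two drugs together for 72 h and then stained and imaged. The read-out is cell count (nuclei) in % of the DMSO control; lower values mean stronger growth inhibition or killing. Concentrations were fixed for each drug; these are the lower of two levels, a fifth of the higher. No replicate spread is given; individual values may be noisy.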 An unselected part of the screen is shown.

Drugs,IPC-298,LOX IMVI,COLO 829,C32,COLO 800
erlotinib + cisplatin,95.3,98.4,95.2,92.8,113
cisplatin + FK866,44.4,81.8,66.9,113,10.8
FK866 + MK-2206,37.8,101,79.3,108,21.2
stibogluconate + ENMD-2076,106,96.6,107,87.5,138
VX-702 + lapatinib,101,79.9,104,104,76.7
BI-78D3 + erlotinib,91.2,58.6,95.7,95.9,87.4
stibogluconate + BI-78D3,104,107,113,104,101
MK-2206 + stibogluconate,101,95.7,126,110,89.3
ENMD-2076 + MK-2206,91.0,107,94.3,112,70.7
lapatinib + BI-78D3,93.1,100,86.9,94.6,85.1
VX-702 + MK-2206,104,92.1,123,94.1,148
MK-2206 + PLX4720,96.2,94.2,97.3,85.4,68.4
MK-2206 + tozasertib,105,84.9,93.1,103,110
FK866 + erlotinib,42.6,56.6,86.2,110,26.8
lenalidomide + stibogluconate,95.5,99.8,131,86.7,99.6
lenalidomide + cisplatin,95.2,84.5,114,80.2,90.4
erlotinib + VX-702,99.5,136,88.0,101,79.7
lenalidomide + fludarabine,94.6,102,92.5,84.4,69.8
lenalidomide + tozasertib,98.7,90.8,92.6,85.4,83.6
cisplatin + stibogluconate,103,45.1,80.1,94.4,92.9
erlotinib + fludarabine,76.9,83.3,89.8,102,99.1
lapatinib + ENMD-2076,95.4,72.8,106,107,45.7
BI-78D3 + FK866,43.0,82.3,97.1,100,32.5
VX-702 + FK866,40.5,59.5,76.5,115,48.1
PLX4720 + fludarabine,95.4,105,107,90.0,48.0
fludarabine + FK866,44.1,82.5,43.5,91.7,22.7
BI-78D3 + MK-2206,96.9,60.3,90.6,101,75.9
lenalidomide + lapatinib,106,69.5,90.4,102,98.2
stibogluconate + fludarabine,97.9,107,115,80.3,92.4
tozasertib + PLX4720,97.7,64.7,102,72.2,97.5
lapatinib + cisplatin,108,116,96.9,107,123
ENMD-2076 + VX-702,99.4,115,139,106,108
PLX4720 + erlotinib,90.2,114,107,108,86.0
BI-78D3 + tozasertib,118,86.8,98.4,85.7,61.2

The last 2 entries again:

| Drugs | IPC-298 | LOX IMVI | COLO 829 | C32 | COLO 800 |
|---|---|---|---|---|---|
| PLX4720 + erlotinib | 90.2 | 114 | 107 | 108 | 86.0 |
| BI-78D3 + tozasertib | 118 | 86.8 | 98.4 | 85.7 | 61.2 |